The test deals with P388 leukemia ip, CD2F1 mice, survival T/C. Briefly: NCI In Vivo Anticancer Drug Screen. Data for tumor model P388 Leukemia (intraperitoneal) in CD2F1 (CDF1) mice. The conditions noted are these: T/C endpoint: median survival time, higher T/C = longer survival.
Setting [1] is: dose: 50.0 mg/kg/injection, schedule: Q01DX005 (ip), vehicle: Klucel (hydroxypropylcellulose) (HPC).
Setting [2] is: dose: 100.0 mg/kg/injection, schedule: Q01DX005 (ip), vehicle: Klucel (hydroxypropylcellulose) (HPC).
The mark [3] stands for this setting: dose: 200.0 mg/kg/injection, schedule: Q01DX005 (ip), vehicle: Klucel (hydroxypropylcellulose) (HPC).
[4] abbreviates: dose: 200.0 mg/kg/injection, schedule: Q01DX009 (ip), vehicle: saline with Tween-80.
The mark [5] stands for this setting: dose: 50.0 mg/kg/injection, schedule: Q01DX009 (ip), vehicle: saline with Tween-80.
[6] abbreviates: dose: 100.0 mg/kg/injection, schedule: Q01DX009 (ip), vehicle: saline with Tween-80.
Where [7] appears, read: dose: 100.0 mg/kg/injection, schedule: Q01DX009 (ip), vehicle: saline.
The mark [8] stands for this setting: dose: 200.0 mg/kg/injection, schedule: Q01DX009 (ip), vehicle: saline.
Where [9] appears, read: dose: 25.0 mg/kg/injection, schedule: Q01DX005 (ip), vehicle: saline with Tween-80.
Where [10] appears, read: dose: 50.0 mg/kg/injection, schedule: Q01DX005 (ip), vehicle: saline with Tween-80.
Setting [11] is: dose: 100.0 mg/kg/injection, schedule: Q01DX005 (ip), vehicle: saline with Tween-80.
Where [12] appears, read: dose: 200.0 mg/kg/injection, schedule: Q01DX005 (ip), vehicle: saline with Tween-80.
Setting [13] is: dose: 2.0 mg/kg/injection, schedule: Q01DX001 (ip), vehicle: water.
Setting [14] is: dose: 200.0 mg/kg/injection, schedule: Q04DX003 (ip), vehicle: saline.
The mark [15] stands for this setting: dose: 400.0 mg/kg/injection, schedule: Q04DX003 (ip), vehicle: saline.
Setting [16] is: dose: 200.0 mg/kg/injection, schedule: Q01DX005 (ip), vehicle: saline.

SMILES strings stand for the structures. The list is a part of this screen's results and no random one: it gathers tests that were run many times, whatever their T/C, doses with no T/C, and many T/C values between a quarter and a half above the control. Further doses and runs are listed elsewhere. T/C is the treated group as % of the vehicle group. Some doses have a count of surviving animals in place of a T/C: the source files T/C as zero there, which appears to mark a toxic dose or a test without result, not a measured value. Some survivor counts are full or nearly so, which does not show that the dose was tolerated: survival well below the control is almost never listed, so the zero probably covers shortened survival too. Counts of survivors are from the toxicity check (mostly the fifth day) where no day follows; animals may have died later. Schedules are NCI's codes, taken here to give the interval after Q, in days (D) or hours (H), and the number of doses after X. Some doses were run more than once; the values are given in rising order. Where survival is the endpoint, the PubChem record calls one and a half times the control and up active, and a quarter to a half above the control has no call in these data; cut-offs in other NCI protocols can differ. Some T/C values carry the count of animals alive at the toxicity check (mostly the fifth day); without a count, all were alive then.

For the molecule `CC1=C(C2CO2)C(=O)c2ccccc2C1=O` (stereo not given), the survivor count (dose: 12.5 mg/kg/injection, schedule: Q01DX005 (ip), vehicle: Klucel (hydroxypropylcellulose) (HPC)) is reported as 1 of 6; the survivor count (dose: 25.0 mg/kg/injection, schedule: Q01DX005 (ip), vehicle: Klucel (hydroxypropylcellulose) (HPC)) is 0 of 6; the survivor count under setting [1] is 0 of 6; the survivor count under setting [2] is 0 of 6; the survivor count under setting [3] is listed as 0 of 6.
In the case of `N#Cc1ccc(=O)[nH]c1O`, the survivor count under setting [4] is given as 6 of 6.
For `NC(=O)Nc1cc(NC(N)=O)cc(N(CCCl)CCCl)c1`, the T/C is, setting by setting: (dose: 20.0 mg/kg/injection, schedule: Q04DX003 (ip), vehicle: water) 127 % of control; (dose: 40.0 mg/kg/injection, schedule: Q04DX003 (ip), vehicle: water) 129 % of control; (dose: 60.0 mg/kg/injection, schedule: Q04DX003 (ip), vehicle: water) 131 % of control.
Consider `COP(=O)(O)OC`, for which the survivor count (dose: 100.0 mg/kg/injection, schedule: Q01DX001 (ip), vehicle: Klucel (hydroxypropylcellulose) (HPC)) is on record as 6 of 6.
On to `O=[N+]([O-])c1ccc(Sc2ccccn2)nc1Sc1ccccn1`, for which the survivor count is 6 of 6 (dose: 6.25 mg/kg/injection, schedule: Q01DX009 (ip), vehicle: saline with Tween-80); 6 of 6 (dose: 12.5 mg/kg/injection, schedule: Q01DX009 (ip), vehicle: saline with Tween-80); 6 of 6 (dose: 25.0 mg/kg/injection, schedule: Q01DX009 (ip), vehicle: saline with Tween-80); 6 of 6 under setting [5]; 5 of 6 under setting [6].
Turning to `CC(CN)c1ccccc1` (stereo not given), the survivor count is on record as 3 of 6 under setting [7] and 0 of 6 under setting [8].
For the molecule `CC1CCCC(CC2CCCC[N-]2)[N-]1.CC1CCCC(CC2CCCC[N-]2)[N-]1.[Ni+2].[O-][Cl+3]([O-])([O-])O` (stereo not given), the survivor count reads like this: (dose: 200.0 mg/kg/injection, schedule: Q01DX001 (ip), vehicle: saline) 2 of 6; (dose: 400.0 mg/kg/injection, schedule: Q01DX001 (ip), vehicle: saline) 0 of 6.
In the case of `CCCC1CCCCN1C` (stereo not given), the survivor count is reported as 4 of 6 under setting [9], 0 of 6 under setting [10], 0 of 6 under setting [11] and 0 of 6 under setting [12].
On to `c1ccc2c(c1)oc1cc3c(cc12)ncc1cccn13`, for which the survivor count by setting is: under setting [9], 5 of 5; under setting [10], 5 of 5; under setting [11], 5 of 5; under setting [12], 4 of 5.
As for `CCC1=C[C@H]2CN(CCc3c([nH]c4ccccc34)[C@@](C(=O)OC)(c3cc4c(cc3OC)N(C=O)[C@H]3[C@@](O)(C(=O)OC)[C@H](OC(C)=O)[C@]5(CC)C=CCN6CC[C@]43[C@@H]65)C2)C1`, the T/C under setting [13] is 125 % of control. Further, the survivor count runs as follows: under setting [13], 0 of 6; (dose: 4.0 mg/kg/injection, schedule: Q01DX001 (ip), vehicle: water) 0 of 6; (dose: 8.0 mg/kg/injection, schedule: Q01DX001 (ip), vehicle: water) 0 of 6; (dose: 16.0 mg/kg/injection, schedule: Q01DX001 (ip), vehicle: water) 0 of 6.
For the molecule `Cc1cccc(NCc2ccccn2)n1`, the survivor count under setting [12] is recorded as 1 of 6.
In the case of `O=P(c1ccccc1)(c1ccccc1)c1ccccc1.[CH3][Sn]([Cl])([Cl])[c]1ccccc1`, the T/C (dose: 100.0 mg/kg/injection, schedule: Q04DX003 (ip), vehicle: saline) was 130 % of control [5 of 6 alive]. Besides, the survivor count is, setting by setting: under setting [14], 0 of 6; under setting [15], 0 of 6.
Take `Cc1ccc(C2=CSC3=NCCN23)cc1Cl`: the survivor count was 3 of 6 under setting [1], 0 of 5 under setting [2] and 0 of 5 under setting [3].
`Cc1ccc(SSCCN)cc1`: the survivor count was 3 of 5 (dose: 100.0 mg/kg/injection, schedule: Q01DX005 (ip), vehicle: saline) and 0 of 5 under setting [16].
Take `O=[N+]([O-])c1cc([N+](=O)[O-])c2ccccc2c1NS(=O)(=O)c1ccc(Cl)c(Cl)c1Cl`: the T/C was 134 % of control under setting [6] and 129 % of control [5 of 6 alive] under setting [4]. Also, the survivor count (dose: 400.0 mg/kg/injection, schedule: Q01DX009 (ip), vehicle: saline with Tween-80) is 2 of 6.
Turning to `COc1ccc2c(c1)C(NCCCCCCNc1cc(C)[n+](C)c3ccc(OC)cc13)=CC(C)N2C` (stereo not given), the T/C runs as follows: under setting [10], 129 % of control; under setting [11], 127 [4 of 5 alive] and 129 % of control [4 of 5 alive]. Also, the survivor count under setting [12] was 0 of 5 and 1 of 5.
With `O=C(Nc1ccc(C(=O)Nc2ccc(C3=NCCCN3)cc2)cc1)Nc1ccc(C2=NCCCN2)cc1`, the T/C (dose: 12.5 mg/kg/injection, schedule: Q04DX003 (ip), vehicle: saline with Tween-80) was 141 % of control. The survivor count by setting is: under setting [5], 4 of 6; under setting [14], 1 of 6; under setting [15], 0 of 6.
`OCC1OC(n2ccc3c(Cl)ncnc32)C(O)C1O` (stereo not given): the survivor count is recorded as 6 of 6 (dose: 50.0 mg/kg/injection, schedule: Q01DX005 (ip), vehicle: suspension in saline); 2 of 6 (dose: 100.0 mg/kg/injection, schedule: Q01DX005 (ip), vehicle: suspension in saline); 0 of 6 (dose: 200.0 mg/kg/injection, schedule: Q01DX005 (ip), vehicle: suspension in saline).
With `CC(NCCc1ccccc1)C1CCOC1=O` (stereo not given), the survivor count runs as follows: under setting [7], 3 of 6 and 5 of 6; under setting [8], 0 of 6 and 1 of 6.
As for `O=c1oc2ccc3ccccc3c2cc1-n1nnc2ccccc21`, the survivor count (dose: 240.0 mg/kg/injection, schedule: Q01DX005 (ip), vehicle: saline with Tween-80) is 6 of 6.
Turning to `O=C1OC2(c3ccccc31)c1cc(I)c(O)c(I)c1Oc1c2cc(I)c(O)c1I`, the survivor count (dose: 400.0 mg/kg/injection, schedule: Q04DX003 (ip), vehicle: saline with Tween-80) is 0 of 6.
`COc1ccc2cc1Oc1ccc(cc1)C[C@H]1c3cc(c(OC)cc3CCN1C)Oc1c(OC)c(OC)cc3c1[C@H](C2)N(C)CC3`: the survivor count reads like this: (dose: 100.0 mg/kg/injection, schedule: Q01DX009 (ip), vehicle: other) 6 of 6; (dose: 200.0 mg/kg/injection, schedule: Q01DX009 (ip), vehicle: other) 1 of 6.
`C=C1C(=O)OC2C1C(OC(=O)/C(=C/C)CO)CC(C)(O)C1CC=C(C)C21` (stereo not given): the survivor count by setting is: (dose: 95.0 mg/kg/injection, schedule: Q01DX005 (ip), vehicle: Klucel (hydroxypropylcellulose) (HPC)) 0 of 5; (dose: 190.0 mg/kg/injection, schedule: Q01DX005 (ip), vehicle: Klucel (hydroxypropylcellulose) (HPC)) 0 of 5.
Take `Oc1ccc(SCc2ccc(NCc3ccccc3)cc2)cc1`: the T/C under setting [6] is 127 % of control; the T/C under setting [4] was 130 and 134 % of control.
For `CCCC1c2c(ccc3c2OCO3)CC[N+]1(C)CCN(CC)CC` (stereo not given), the survivor count is 3 of 6 under setting [10], 0 of 6 under setting [11] and 0 of 6 under setting [12].
On to `CCN(CC)CCOc1ccc(NC2=C(Cl)C(=O)C(Nc3ccc(OCCN(CC)CC)cc3)=C(Cl)C2=O)cc1`, for which the survivor count under setting [5] is on record as 3 of 6.
Regarding `C/C(=N\N=c1\sc2ccccc2n1CC(=O)O)c1ccccc1`, the survivor count (dose: 400.0 mg/kg/injection, schedule: Q01DX001 (ip), vehicle: saline with Tween-80) is listed as 3 of 6.
As for `CCN(CC)CCOc1ccc(-c2cc(-c3ccccc3)nc(N)n2)cc1`, the survivor count under setting [16] is 1 of 6, 2 of 6, 4 of 5.

For the origin of these results see PubChem BioAssay AID330 (DTP/NCI, 2004).
